The source of these data is PubChem BioAssay AID445 (National Center for Advancing Translational Sciences (NCATS), 2006).

Usually AC50 stands for the midpoint of the concentration-response curve, whichever way the signal moves.

Molecules are shown by their SMILES. Some of the results follow. The main result of the screen is listed elsewhere. These columns were measured beside it and carry no call. Most of these compounds were active or inconclusive in the main read-out, so they are no random draw. Potencies come from curve fits of mixed quality, noted in brackets.

The experiment is described as follows: IkB Signaling. As to conditions: ABC-DLBCL IkBa-CBG/CBR dual luciferase ratio (green luciferase fused to IkBa over red control in OCI-Ly3 lymphoma cells), 4 h; measured here: control luc red channel unless noted. In outline: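 In this assay, an IκBα–CBG68 fusion accumulates when IKK-driven degradation is blocked; native CBR normalizes for cell number. OCI-Ly3 cells were treated 4 h with compound and doxycycline, then green and red light read after Chroma-Glo addition.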
Consider `COc1ccccc1C(=O)Oc1c(Sc2ccccc2)c(C)nn1C(C)(C)C`, for which the AC50 was 12.6 µM [falling, partial curve].
Then `COc1ccc(-c2c3c(=O)n(C)c(=O)n(C)c3c3n2-c2ccccc2NC3c2ccc(OC)cc2)cc1` (stereo not drawn), with 20 µM [falling, partial curve].
Then `Cc1ccc(NC(=O)c2cc(S(=O)(=O)N(C)C3CCCCC3)ccc2F)cc1C`, with 15.8 µM [falling, partial curve]; and `COC(=O)c1ccc(CSc2nncn2C)cc1`, with 12.6 µM [falling, partial curve]; and `O=C(Nc1ccc(C(=O)N2CCN(c3cccc(Cl)c3)CC2)cc1)c1nsc2ccccc12`, with 0.158 µM [falling, full curve].
Then `COc1ccccc1-c1cc(C(F)(F)F)nc(S(=O)(=O)CCCC(=O)N2CCCCC2C)n1` (stereo not drawn), with 1.26 µM [falling, full curve]; and `CSc1cccc(NC(=O)CSc2nc3ccccc3o2)c1`, with 15.8 µM [falling, partial curve].
On to `COc1ccccc1CCNC(=O)c1ccc2c(c1)c(C)c(C)n2C`, for which the half-maximal activity concentration (AC50) was 15.8 µM [falling, partial curve].
`COc1ccc(NC(=O)CSc2ncc(-c3ccc(Cl)cc3)[nH]2)cc1OC`: the AC50 was 7.94 µM [falling, partial curve].
As for `COC(=O)c1ccc(NC(=O)CC2C(=O)N(c3ccc(Cl)cc3)C(=O)N2Cc2cccs2)cc1` (stereo not drawn), the AC50 is 25.1 µM [falling, partial curve].
As for `Cc1cc(S(=O)(=O)Nc2cccc(C(=O)O)c2)c(C)c(S(=O)(=O)c2ccccc2)c1`, the figure is 7.94 µM [falling, full curve]; as for `COC(=O)c1cc(NC(=O)CCc2c(C)nc3c4c(C)cc(C)nc4nn3c2C)cc(C(=O)OC)c1`, 5.01 µM [rising, partial curve].
Then `CCOC(=O)c1sc(N2C(=O)c3oc4cc(C)c(C)cc4c(=O)c3C2c2cccc(O)c2)nc1C` (stereo not drawn), with 10 µM [falling, partial curve]; and `Cc1ccc(Cn2c(=O)n(CCCCC(=O)NCCc3ccc(Cl)cc3)c(=O)c3ccccc32)cc1`, with 25.1 µM [falling, single point].
For `Cc1ccccc1OCCCC(=O)Nc1ccc2c(c1)OCO2`, the AC50 is 25.1 µM [falling, partial curve].
Turning to `COc1ccccc1-c1nc(-c2ccc(Br)cc2)no1`, the AC50 is 0.00251 µM [falling, full curve].
Then `Cc1cc(C)cc(OCC(=O)NCC(c2ccc(Cl)cc2)N2CCCCC2)c1` (stereo not drawn), with 31.6 µM [falling, single point]; and `CC1CCc2c(sc3nnn(Cc4ccc(F)cc4)c(=O)c23)C1` (stereo not drawn), with 3.98 µM [falling, single point].
As for `O=C(NCc1ccccc1)c1cc(-c2cccc(Cl)c2)on1`, the figure is 10 µM [falling, partial curve, poor fit].
For `CCc1nnc2c(Nc3ccc(Br)c(C)c3)nc3ccccc3n12`, the concentration at half-maximal activity (AC50) was 0.631 µM [rising, full curve].
On to `CCn1nc(C)c(Oc2ccccc2O)c1C`, for which the AC50 is 200 nM [rising, partial curve, poor fit] [measured here: IkB-luc green channel].
Then `Cc1ccc(-n2ncc(-c3nnc(SCC(=O)NC4CCCC4)o3)c2N)cc1C`, with 31.6 µM [falling, single point]; and `CCCNC(=O)c1ccc2c(c1)N(Cc1cccc(C)c1)C(=O)c1ccccc1S2`, with 39.8 µM [falling, partial curve].
As to `CCCCCCCC/C=C\CCCCCCCC(=O)N[C@@H](CO)Cc1ccc(O)cc1`, the AC50 was 12.6 µM [falling, full curve, poor fit].
`N=C(N)SCc1cccc(-c2nc3ccccc3c(=O)o2)c1`: the AC50 is 3.16 µM [falling, single point].
Then `CCc1ccccc1NC(=O)c1cc(S(=O)(=O)N(CC)c2ccccc2)ccc1F`, with 20 µM [falling, partial curve]; and `CCc1nnc(NC(=O)CN2CCN(c3nc(-c4ccccc4)cs3)CC2)s1`, with 31.6 µM [falling, single point].
As for `COc1ccccc1-n1cnnc1SCC(=O)Nc1cc(C(C)(C)C)nn1-c1ccccc1`, the figure is 5.01 µM [falling, partial curve].
As for `Cc1cc(-c2ccccc2)n(-c2ccc(C(=O)N3CCN(c4ncccn4)CC3)cc2)n1`, the figure is 3.98 µM [falling, full curve, poor fit]; as for `O=C(CC1N=C2c3ccccc3N=C(SCC(=O)Nc3cccc(C(F)(F)F)c3)N2C1=O)NCc1cccs1` (stereo not drawn), 12.6 µM [falling, partial curve].
Turning to `O=C(Nc1cccc(Cl)c1)c1ccc2c(=O)n3c(nc2c1)CCCCC3`, the concentration at half-maximal activity (AC50) is 7.94 µM [falling, partial curve].
As for `CCc1ccc(CN(Cc2ccco2)C(=O)c2ccccc2Cl)cc1`, the figure is 15.8 µM [falling, partial curve].
With `Cc1cc(C)c(C)c(S(=O)(=O)Nc2ccc(O)cc2)c1C`, the concentration at half-maximal activity (AC50) was 12.6 µM [falling, partial curve].
As for `Cc1ccc(C(=O)Nc2nnc(S(=O)(=O)N3CCOCC3)s2)cc1`, the figure is 2 µM [rising, partial curve].
Then `COC(=O)c1sc(-c2ccccc2)cc1NC(=O)c1cccc(F)c1`, with 12.6 µM [falling, partial curve]; and `O=C(CCNS(=O)(=O)c1cccc2nonc12)N1CCN(c2cccc(Cl)c2)CC1`, with 31.6 µM [falling, partial curve].
For the molecule `O=C(NCc1ccc(F)cc1)C1CCN(C(=O)c2ccc(-n3ccc4ccccc43)s2)CC1`, the AC50 was 10 µM [falling, partial curve].
Then `COc1cccc(CNC(=O)c2c(C)nn(-c3cccc(C)c3)c2-n2cccc2)c1`, with 20 µM [falling, partial curve]; and `O=C(NCCCc1ccccc1)c1nn(-c2ccccc2F)nc1CO`, with 25.1 µM [falling, single point].
Take `COc1ccc2nc3c(cc2c1)c(NC(=O)c1cccs1)nn3CC(C)C`: the AC50 is 2 µM [falling, full curve].
With `Cc1cccc2cc(CN(Cc3nnnn3Cc3ccccc3)C3CCCC3)c(=O)[nH]c12`, the AC50 was 10 µM [falling, partial curve].
As for `Cc1cc(C)cc(-n2cnc3cc(C(=O)NCCc4ccccc4)ccc32)c1`, the figure is 25.1 µM [falling, single point]; as for `CCOC(=O)c1c(Oc2ccc(C(=O)OC)cc2)nnc(-c2ccccc2)c1-c1ccccc1`, 12.6 µM [falling, partial curve].
For `CCN(C(=O)Cn1c(C(=O)OC)cc2oc3ccccc3c21)c1cccc(C)c1`, the AC50 was 10 µM [falling, partial curve].
As for `CCOC(=O)C1CCN(C(=O)c2oc3ccc(S(=O)(=O)N4CCCCCC4)cc3c2C)CC1`, the figure is 10 µM [falling, partial curve]; as for `O=C(c1cccc(Cl)c1)n1nc(-c2ccco2)nc1NCc1cccs1`, 25.1 µM [falling, single point]; as for `Cc1cccc(NC(=O)c2cc(S(=O)(=O)N3CCCCC3)c[nH]2)c1C`, 0.126 µM [falling, full curve].
Then `Cc1cccc(Cn2c(SCc3ccc(C(=O)N4CCCCCC4)cc3)nc3ccncc32)c1`, with 25.1 µM [falling, partial curve]; and `Cc1cccc2cc(CN(Cc3nnnn3Cc3ccco3)C3CCCC3)c3nnnn3c12`, with 15.8 µM [falling, partial curve].
Consider `CCc1ccc(-n2nnc(-c3nc(-c4ccccc4)no3)c2C)cc1`, for which the half-maximal activity concentration (AC50) was 2.51 µM [falling, full curve].
On to `COc1ccc(CCNC(=O)c2ccc3c(c2)N(Cc2cccc(C)c2)C(=O)c2ccccc2S3(=O)=O)cc1OC`, for which the AC50 is 1.26 µM [rising, full curve].
In the case of `CCOc1ccccc1-c1nc(-c2ccc(-c3ccccc3)nc2OCC)no1`, the AC50 is 7.94 µM [falling, partial curve].
Then `COc1ccccc1NC(=O)CSc1nnc(-c2cccc(Cl)c2)o1`, with 6.31 µM [falling, partial curve]; and `COc1ccccc1Nc1c2c(nc3ccc(NC(=O)/C=C/c4cccc(OC)c4OC)cc13)CCCC2`, with 12.6 µM [falling, partial curve].
On to `COc1ccc2nc(N(Cc3cccnc3)C(=O)CCc3ccccc3)sc2c1`, for which the half-maximal activity concentration (AC50) is 39.8 µM [falling, single point].
As for `CCCCC12CN3CC(C)(CN(C1)C3c1cc(Br)ccc1O)C2=O` (stereo not drawn), the figure is 31.6 µM [falling, single point]; as for `CC(=O)c1cc(-c2ccc(F)cc2)n(CCC(=O)NCc2ccccc2C)c1C`, 39.8 µM [falling, single point]; as for `Cc1ccc(-c2nc3scc(CCNC(=O)c4cccc(Br)c4)n3n2)cc1`, 0.501 µM [rising, full curve].
In the case of `COc1ccccc1NC(=O)C1CCCN(c2nnc(C)c3c(C)n(-c4ccccc4)nc23)C1` (stereo not drawn), the concentration at half-maximal activity (AC50) was 10 µM [falling, partial curve].
For `Cc1ccc(N2CCN(c3nc4ccc(C)cc4n4nnnc34)CC2)c(C)c1`, the AC50 was 20 µM [falling, single point].
As for `CCCN(CCC)C(=O)Cn1c(=O)n(-c2cccc(C(F)(F)F)c2)c(=O)c2c(C)c(C)sc21`, the figure is 7.94 µM [falling, full curve]; as for `CCOC(=O)c1sc(NC(=O)c2c(C)nn(Cc3ccccc3)c2C)cc1C`, 25.1 µM [falling, partial curve].
As for `CCOc1cc(C(=O)Nc2ccc(-c3nc4cc(C)ccc4o3)cc2)cc(OCC)c1OCC`, the figure is 7.94 µM [falling, full curve, poor fit].
